# Measured values: PubChem BioAssay AID2073 (Sanford-Burnham Center for Chemical Genomics, 2009)
# Sequences of proteins named here, by UniProt entry; tags and fusion partners are left off.
# UniProt Q00975, whole entry, looked up: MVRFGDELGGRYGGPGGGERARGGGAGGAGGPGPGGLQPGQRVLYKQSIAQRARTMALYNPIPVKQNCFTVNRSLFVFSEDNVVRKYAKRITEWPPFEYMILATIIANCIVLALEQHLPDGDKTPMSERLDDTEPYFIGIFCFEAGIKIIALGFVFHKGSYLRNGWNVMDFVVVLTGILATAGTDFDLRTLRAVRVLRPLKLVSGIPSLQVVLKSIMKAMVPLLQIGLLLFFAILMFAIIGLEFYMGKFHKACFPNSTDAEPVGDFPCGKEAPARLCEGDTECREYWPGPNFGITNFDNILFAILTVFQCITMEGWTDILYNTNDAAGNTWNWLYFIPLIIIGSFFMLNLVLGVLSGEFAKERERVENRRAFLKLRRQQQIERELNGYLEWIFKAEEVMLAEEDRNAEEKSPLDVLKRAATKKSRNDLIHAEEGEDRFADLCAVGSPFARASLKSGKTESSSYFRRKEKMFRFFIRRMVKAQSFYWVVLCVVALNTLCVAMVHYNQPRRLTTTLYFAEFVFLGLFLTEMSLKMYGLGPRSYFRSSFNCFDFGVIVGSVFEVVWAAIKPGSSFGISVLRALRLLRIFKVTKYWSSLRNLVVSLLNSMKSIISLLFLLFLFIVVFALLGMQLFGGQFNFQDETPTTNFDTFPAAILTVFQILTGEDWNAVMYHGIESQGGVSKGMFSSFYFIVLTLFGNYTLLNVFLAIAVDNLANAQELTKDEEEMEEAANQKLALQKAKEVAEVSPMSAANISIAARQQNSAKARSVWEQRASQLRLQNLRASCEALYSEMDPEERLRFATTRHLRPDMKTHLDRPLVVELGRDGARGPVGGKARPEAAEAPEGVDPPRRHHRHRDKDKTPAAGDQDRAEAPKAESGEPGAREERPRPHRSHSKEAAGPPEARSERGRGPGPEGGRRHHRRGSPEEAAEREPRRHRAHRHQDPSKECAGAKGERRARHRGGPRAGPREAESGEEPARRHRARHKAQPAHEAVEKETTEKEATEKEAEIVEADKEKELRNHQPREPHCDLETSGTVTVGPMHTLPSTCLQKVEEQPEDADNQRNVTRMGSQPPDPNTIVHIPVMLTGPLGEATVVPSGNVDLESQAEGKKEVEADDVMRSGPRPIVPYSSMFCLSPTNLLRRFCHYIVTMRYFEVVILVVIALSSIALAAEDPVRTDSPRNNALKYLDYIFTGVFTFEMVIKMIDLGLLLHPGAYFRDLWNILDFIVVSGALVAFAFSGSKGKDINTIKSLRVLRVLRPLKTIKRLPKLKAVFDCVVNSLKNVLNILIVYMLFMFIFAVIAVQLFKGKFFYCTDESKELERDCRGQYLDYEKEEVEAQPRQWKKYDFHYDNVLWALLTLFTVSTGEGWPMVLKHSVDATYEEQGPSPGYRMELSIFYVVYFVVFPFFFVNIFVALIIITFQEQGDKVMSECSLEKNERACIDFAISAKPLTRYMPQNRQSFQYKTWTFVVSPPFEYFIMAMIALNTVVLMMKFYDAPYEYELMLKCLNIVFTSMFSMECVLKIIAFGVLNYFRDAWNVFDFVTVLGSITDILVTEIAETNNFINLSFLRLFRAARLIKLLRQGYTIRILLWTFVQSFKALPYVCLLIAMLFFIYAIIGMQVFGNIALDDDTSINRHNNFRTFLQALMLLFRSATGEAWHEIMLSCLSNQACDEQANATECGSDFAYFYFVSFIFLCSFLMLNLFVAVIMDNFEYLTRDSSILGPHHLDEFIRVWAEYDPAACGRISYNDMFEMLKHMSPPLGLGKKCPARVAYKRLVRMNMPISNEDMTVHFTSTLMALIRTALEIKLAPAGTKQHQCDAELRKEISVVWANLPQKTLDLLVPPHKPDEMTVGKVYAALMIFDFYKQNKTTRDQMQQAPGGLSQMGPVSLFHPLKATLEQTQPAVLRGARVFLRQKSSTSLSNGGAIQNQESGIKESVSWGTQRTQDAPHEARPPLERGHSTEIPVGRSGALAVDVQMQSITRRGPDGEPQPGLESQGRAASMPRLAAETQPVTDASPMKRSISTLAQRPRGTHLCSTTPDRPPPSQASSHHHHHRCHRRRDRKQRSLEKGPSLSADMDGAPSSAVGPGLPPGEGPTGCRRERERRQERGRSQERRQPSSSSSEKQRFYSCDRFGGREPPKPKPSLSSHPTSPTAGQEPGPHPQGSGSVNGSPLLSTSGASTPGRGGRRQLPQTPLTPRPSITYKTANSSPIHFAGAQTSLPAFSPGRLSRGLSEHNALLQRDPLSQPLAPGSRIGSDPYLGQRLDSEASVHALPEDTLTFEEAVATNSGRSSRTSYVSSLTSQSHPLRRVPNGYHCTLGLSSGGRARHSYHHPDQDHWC
# Several values for one entry are separate records, joined by “and”; a condition that tells them apart may be missing. Identical values can stand only once. Out of some 290,000 compounds screened, about 570 (0.2%) were called active. The shares of active, inactive and inconclusive entries below differ from those in the screen. Rule as the data show it: active = inhibition mostly above about 51% (no sharp cut-off); inconclusive = no clear call, values can overlap the other calls; inactive = mostly below about 53%.
# Biological target: Voltage-dependent N-type calcium channel subunit alpha-1B (Homo sapiens) (UniProt Q00975)
# Assay: disruptors of CaV2.2 binding to Mint1 – biochemical, HTRF (AID 2073)
# Conditions: HTRF protein-protein interaction, Mint1-CaV2.2; at 20 µM; stronger effect = higher value
row,SMILES,inhibition
1,O=C(COC(=O)c1ccc(NS(=O)(=O)c2cccs2)cc1)NCC1CCCO1 (stereo not given),inactive: -3%
2,Cc1cc(C)cc(N2CC34C=CC(O3)C(C(=O)OCC(=O)NCc3ccco3)C4C2=O)c1 (stereo not given),inconclusive: 64.1%
3,Cc1cc(NC(=S)N(Cc2cccc(Br)c2)CC2CCC(C(=O)O)CC2)ccc1Cl (stereo not given),inconclusive: 60.8%
4,COc1ccc(C)cc1NC(=O)CCNC(=O)c1ccco1,inconclusive: 55.7%
5,CSc1nc(N2CCN(CCO)CC2)c2sc3nc(-c4ccco4)c4c(c3c2n1)CCC4,active: 64%
6,Cc1c(NC(=O)c2ccc(N3C(=O)C4C5C=CC(C5)C4C3=O)cc2)c(=O)n(-c2ccccc2)n1C (stereo not given),inconclusive: 52%
7,CCCCNc1nc2ccccc2nc1Cl,inactive: 4.6%
8,COc1cc2[nH]c(C(=O)NCc3ccccc3)cc2c(OC)c1OC,inconclusive: 60.7%
9,COc1ccc(-c2nnc(SCC(=O)NC(=O)NCc3ccco3)o2)cc1,inactive: -1.1%
10,Cc1cc(S(=O)(=O)N2CCN(c3ccccc3O)CC2)c(C)s1,inconclusive: 71.8%
11,O=C(/C=C/c1ccco1)Nc1nc(-c2ccccn2)cs1,active: 54.1%
12,COc1ccc(C(=O)Nc2ccc(CN3CCOCC3)cc2)cc1,inconclusive: 63.1%
13,CC1(C)O[C@@H]2[C@@H](CO[C@@]3(COS(N)(=O)=O)OC(C)(C)O[C@@H]23)O1,inconclusive: 66.8%
14,COC(=O)Cc1cc(=O)oc2cc(O)ccc12,inconclusive: 58%
15,O=C(Nc1ccc2c(c1)OCO2)C1CC(=O)N(c2cccc(Cl)c2)C1 (stereo not given),inactive: -1.9%
16,Cc1sc2nc(C3CC3)nc(SCC(=O)N3c4ccccc4CC3C)c2c1C (stereo not given),inconclusive: 62.3%
17,O=C(O)CCCCC1SCC2NC(=O)NC21 (stereo not given),inactive: 8.5% and inactive: -9.5%
18,CC(=O)NNC(=O)c1sc(=S)n2c1[nH]c(=O)c1sccc12,inactive: 46.1%
19,Cc1ccc(-n2nnnc2SCC(=O)c2cc(C)n(CC3CCCO3)c2C)cc1 (stereo not given),inconclusive: 93.9%
20,CCCSCCCNC(=O)CN1C(=O)COc2ccc(S(=O)(=O)N3CCCC3)cc21,inconclusive: 65.9%
21,O=C(CN1C(=O)COc2ccccc21)c1ccc(Cl)cc1,inconclusive: 73%
22,Nc1ccc2c(c1)C/C(=C/c1ccco1)C2=O,active: 87.9%
23,CC(C)c1ccc(C2NC(=S)NC3=C2C(=O)CC(C)(C)C3)cc1 (stereo not given),inactive: -9.1%

row,SMILES,inhibition
1,CCOc1cc(C(=O)OC(C)C(=O)Nc2ncc(Cl)cc2Cl)ccc1OCC(=O)N1CCOCC1 (stereo not given),inconclusive: 50%
2,COc1ccc2oc(=O)c(C(=O)OCC(=O)c3ccc([N+](=O)[O-])cc3)cc2c1,inconclusive: 62.2%
3,COc1ccc(-c2oc3ccccc3c(=O)c2OC(=O)c2ccc(C)cc2)cc1,inconclusive: 53.1%
4,O=C(CN1C(=O)/C(=C\c2cccc(Cl)c2)Oc2ccccc21)N1CCN(c2ccccn2)CC1,inconclusive: 61%
5,C/C(=N\NC(=O)CCn1nnc2ccccc21)c1ccco1,inconclusive: 67.2%
6,O=C(c1ccccc1)N(Cc1cccs1)C1CCS(=O)(=O)C1 (stereo not given),inconclusive: 83.5%
7,CNC(=O)c1c(C)[nH]c(=S)c(C#N)c1-c1ccco1,inactive: -35.6%
8,O=C(OCCN1C(=O)c2cccc3c(N4CCOCC4)ccc(c23)C1=O)c1ccccc1Cl,inconclusive: 58.6%
9,O=C(CN1C(=O)C(=O)c2ccccc21)NCCc1ccccc1,inconclusive: 79.9%
10,O=C(O)C1Nc2c(Cl)cc(Cl)cc2C2C=CCC12 (stereo not given),active: 51.5%
11,Cc1c2cc(O)c(=O)cc-2oc2cc(O)c(O)cc12,inconclusive: 75.1%
12,CSCCC(NC(=O)OC(C)(C)C)C(=O)NC(C(=O)NC(CC(C)C)C(N)=O)C(C)C (stereo not given),inactive: 15.6%
13,Cc1nn(CC(=O)Nc2ccc3c(c2)nc2n3CCN(C3CCCCC3)C2)c(=O)c2ccccc12,inconclusive: 60.1%
14,COc1ccc(Nc2c(-c3ccc(OC)cc3)nc3cnccn23)cc1,inactive: -9.1%
15,CNC(=S)N1CCN=C1Nc1nc(C)cc(C)n1,inactive: 3.5%
16,O=C(O)c1cc(C(=O)O)cc(-c2ccc(/C=c3/sc4nc5ccccc5n4c3=O)o2)c1,active: 67%
17,CC(C)N1C(=O)CC(Nc2cccc3cccc(N)c23)C1=O (stereo not given),inconclusive: 64.3%
18,COC(=O)c1ccc(=O)c2nc3/c(=C/O)c(O)cc(=O)c3[nH]c12,inconclusive: 77.1%
19,O=C(Nc1nc2c(Br)cc(Br)cc2c(=O)s1)c1ccco1,inconclusive: 57.3%
20,Cc1ccc(C)c(OCC(O)CN2CCCCC2C)c1 (stereo not given),inconclusive: 71.7%
21,COc1ccc(-c2cc3ncc(C(C)=O)c(C)n3n2)cc1,inconclusive: 61.8%
22,Cc1cccc(N(C(=O)c2snc(C(N)=O)c2N)C(C(=O)NC2CCCC2)c2ccco2)c1 (stereo not given),inconclusive: 65.6%
